The supplement of paper PMC10849652
The list shows a part of the results.

Chains of the proteins cited; added tags and fusions are not shown. Lines headed by an entry give the natural chain unless they say otherwise; changes in a name come on top.
UniProt Q9Y230, whole entry, looked up: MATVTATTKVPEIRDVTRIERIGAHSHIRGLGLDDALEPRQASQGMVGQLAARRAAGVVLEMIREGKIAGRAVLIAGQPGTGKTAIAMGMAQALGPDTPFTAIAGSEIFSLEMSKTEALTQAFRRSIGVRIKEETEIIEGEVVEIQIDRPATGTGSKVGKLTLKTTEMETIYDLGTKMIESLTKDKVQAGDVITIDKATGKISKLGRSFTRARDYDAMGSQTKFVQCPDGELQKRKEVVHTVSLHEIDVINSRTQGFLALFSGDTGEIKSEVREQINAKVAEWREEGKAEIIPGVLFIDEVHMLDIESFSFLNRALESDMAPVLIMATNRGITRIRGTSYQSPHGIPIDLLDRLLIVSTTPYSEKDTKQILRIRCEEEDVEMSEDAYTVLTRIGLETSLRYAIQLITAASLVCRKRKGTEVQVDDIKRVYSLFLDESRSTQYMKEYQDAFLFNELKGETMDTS
UniProt Q8N488: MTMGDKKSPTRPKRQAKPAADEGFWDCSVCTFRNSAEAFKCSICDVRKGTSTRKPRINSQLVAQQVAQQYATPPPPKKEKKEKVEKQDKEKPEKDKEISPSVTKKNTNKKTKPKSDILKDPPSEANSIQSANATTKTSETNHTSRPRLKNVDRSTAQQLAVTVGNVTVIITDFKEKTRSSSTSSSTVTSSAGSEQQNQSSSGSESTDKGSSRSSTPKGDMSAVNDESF
UniProt Q7L4I2: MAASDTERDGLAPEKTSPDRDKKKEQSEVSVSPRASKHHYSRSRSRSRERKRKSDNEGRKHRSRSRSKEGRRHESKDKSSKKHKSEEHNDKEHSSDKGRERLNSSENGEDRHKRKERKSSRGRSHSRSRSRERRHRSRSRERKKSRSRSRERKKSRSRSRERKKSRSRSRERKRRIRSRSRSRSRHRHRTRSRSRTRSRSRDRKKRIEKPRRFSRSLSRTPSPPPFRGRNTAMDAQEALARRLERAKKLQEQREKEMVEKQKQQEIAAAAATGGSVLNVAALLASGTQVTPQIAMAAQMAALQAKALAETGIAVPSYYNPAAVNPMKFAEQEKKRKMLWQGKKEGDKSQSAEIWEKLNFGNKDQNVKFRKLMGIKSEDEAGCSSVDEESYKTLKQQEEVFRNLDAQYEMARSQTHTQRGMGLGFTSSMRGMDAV
UniProt Q8N5L8: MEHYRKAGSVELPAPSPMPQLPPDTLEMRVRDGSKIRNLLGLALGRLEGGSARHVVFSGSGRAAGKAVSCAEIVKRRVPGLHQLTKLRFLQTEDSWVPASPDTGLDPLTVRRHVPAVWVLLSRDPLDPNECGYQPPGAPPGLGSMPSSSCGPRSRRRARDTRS
UniProt Q9NQC3: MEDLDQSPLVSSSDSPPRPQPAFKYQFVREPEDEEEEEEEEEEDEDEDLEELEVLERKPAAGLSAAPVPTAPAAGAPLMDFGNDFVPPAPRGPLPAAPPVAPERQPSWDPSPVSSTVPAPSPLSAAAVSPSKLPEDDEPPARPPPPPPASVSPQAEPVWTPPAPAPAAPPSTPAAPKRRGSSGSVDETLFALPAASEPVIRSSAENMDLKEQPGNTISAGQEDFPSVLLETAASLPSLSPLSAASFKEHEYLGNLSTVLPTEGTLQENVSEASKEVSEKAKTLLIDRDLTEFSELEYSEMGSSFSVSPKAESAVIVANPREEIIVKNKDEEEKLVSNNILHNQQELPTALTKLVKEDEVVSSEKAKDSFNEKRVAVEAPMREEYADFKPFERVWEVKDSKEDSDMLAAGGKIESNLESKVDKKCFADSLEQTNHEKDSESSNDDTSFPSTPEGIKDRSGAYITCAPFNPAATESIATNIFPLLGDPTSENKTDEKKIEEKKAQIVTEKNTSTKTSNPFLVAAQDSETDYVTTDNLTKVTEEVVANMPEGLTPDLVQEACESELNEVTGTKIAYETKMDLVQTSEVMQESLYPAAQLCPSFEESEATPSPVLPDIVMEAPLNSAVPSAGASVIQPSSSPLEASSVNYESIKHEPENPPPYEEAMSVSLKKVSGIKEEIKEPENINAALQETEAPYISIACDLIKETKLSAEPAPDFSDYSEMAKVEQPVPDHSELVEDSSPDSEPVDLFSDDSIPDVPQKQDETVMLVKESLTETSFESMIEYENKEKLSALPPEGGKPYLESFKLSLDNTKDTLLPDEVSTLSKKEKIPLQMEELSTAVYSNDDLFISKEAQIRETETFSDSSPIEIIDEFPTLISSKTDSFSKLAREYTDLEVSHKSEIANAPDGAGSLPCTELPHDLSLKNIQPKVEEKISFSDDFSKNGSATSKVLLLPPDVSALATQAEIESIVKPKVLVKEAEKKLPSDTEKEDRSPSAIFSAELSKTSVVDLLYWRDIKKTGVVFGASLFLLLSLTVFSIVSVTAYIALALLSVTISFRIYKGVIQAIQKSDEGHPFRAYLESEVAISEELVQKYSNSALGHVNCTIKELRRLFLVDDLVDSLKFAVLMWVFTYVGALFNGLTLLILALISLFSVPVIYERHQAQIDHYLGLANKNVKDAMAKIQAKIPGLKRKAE
UniProt Q6PCB5: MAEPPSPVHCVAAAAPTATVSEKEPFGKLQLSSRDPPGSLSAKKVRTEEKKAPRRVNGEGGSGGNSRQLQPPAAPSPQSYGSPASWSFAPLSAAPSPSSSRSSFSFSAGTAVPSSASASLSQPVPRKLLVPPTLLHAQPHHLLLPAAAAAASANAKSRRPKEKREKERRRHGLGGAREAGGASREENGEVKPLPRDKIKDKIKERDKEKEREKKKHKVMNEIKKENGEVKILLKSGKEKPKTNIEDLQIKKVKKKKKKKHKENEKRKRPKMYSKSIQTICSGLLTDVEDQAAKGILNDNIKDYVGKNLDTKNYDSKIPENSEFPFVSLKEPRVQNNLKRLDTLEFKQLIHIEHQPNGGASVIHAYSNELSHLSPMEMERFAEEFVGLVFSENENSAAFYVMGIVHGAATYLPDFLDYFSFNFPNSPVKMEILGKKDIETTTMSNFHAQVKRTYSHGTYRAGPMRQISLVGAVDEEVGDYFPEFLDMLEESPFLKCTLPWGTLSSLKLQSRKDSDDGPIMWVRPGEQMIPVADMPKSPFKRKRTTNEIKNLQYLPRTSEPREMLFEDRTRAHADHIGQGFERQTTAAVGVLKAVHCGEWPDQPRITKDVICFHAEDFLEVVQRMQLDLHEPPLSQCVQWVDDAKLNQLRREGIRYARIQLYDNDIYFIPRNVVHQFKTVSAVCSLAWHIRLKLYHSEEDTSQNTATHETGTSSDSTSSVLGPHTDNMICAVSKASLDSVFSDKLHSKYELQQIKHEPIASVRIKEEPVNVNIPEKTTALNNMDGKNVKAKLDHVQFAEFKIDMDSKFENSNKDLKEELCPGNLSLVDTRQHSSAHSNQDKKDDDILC
UniProt Q9BY42: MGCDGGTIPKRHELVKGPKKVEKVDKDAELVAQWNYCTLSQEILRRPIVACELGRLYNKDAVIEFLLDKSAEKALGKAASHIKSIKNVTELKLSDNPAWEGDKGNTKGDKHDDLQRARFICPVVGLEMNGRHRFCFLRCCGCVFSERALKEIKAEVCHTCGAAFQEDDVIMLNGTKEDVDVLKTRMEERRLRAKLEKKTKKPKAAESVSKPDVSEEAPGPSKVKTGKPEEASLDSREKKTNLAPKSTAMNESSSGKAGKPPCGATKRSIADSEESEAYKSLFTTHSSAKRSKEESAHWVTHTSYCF
UniProt P31949: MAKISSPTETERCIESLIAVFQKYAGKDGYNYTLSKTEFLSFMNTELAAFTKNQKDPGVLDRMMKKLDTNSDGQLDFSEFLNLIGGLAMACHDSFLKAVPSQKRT
UniProt P31350, whole entry, looked up: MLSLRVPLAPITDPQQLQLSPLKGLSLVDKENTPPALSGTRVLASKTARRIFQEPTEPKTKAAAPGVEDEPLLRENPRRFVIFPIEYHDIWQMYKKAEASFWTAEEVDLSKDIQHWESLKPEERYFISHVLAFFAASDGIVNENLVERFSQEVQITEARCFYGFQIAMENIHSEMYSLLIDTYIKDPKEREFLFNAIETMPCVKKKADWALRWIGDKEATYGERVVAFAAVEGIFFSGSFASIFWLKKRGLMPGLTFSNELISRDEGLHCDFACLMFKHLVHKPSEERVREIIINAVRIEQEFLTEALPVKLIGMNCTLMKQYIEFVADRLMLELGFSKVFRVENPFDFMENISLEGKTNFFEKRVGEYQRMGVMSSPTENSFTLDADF

Legend:
Assay in all cases: log2 fold change, soluble protein after heating vs DMSO (PISA); higher = thermal stabilisation; K562 lysate, 10 uM; active = over 0.2 and 3.5 SD of the protein, either way, in both replicates (recomputed)
vemurafenib = compound: CCCS(=O)(=O)Nc1ccc(F)c(C(=O)c2c[nH]c3ncc(-c4ccc(Cl)cc4)cc23)c1F [vemurafenib]
Outline: (§1)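 Thermal stability, expressed as log-two fold change relative to solvent controls, is given from duplicates. Crude K562 extract in PBS pH 7.4 with 1 mM MgCl2, at 1 mg/mL protein, was treated with 10 μM compound for 30 min and heated in aliquots for 3 min across 48°C-58°C. After pooling, adjustment to 0.5% NP-40 at 4°C and centrifugation at 21,000xg for 90 min, supernatant protein was measured by TMTpro 16plex LC-MS/MS with channel sums equalised.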

[1] = compound: CCCS(=O)(=O)Nc1ccc(F)c(C(=O)c2c[nH]c3ncc(Cl)cc23)c1F
Outline: as §1

barasertib = compound: CCN(CCCOc1ccc2c(Nc3cc(CC(=O)Nc4cccc(F)c4)[nH]n3)ncnc2c1)CCOP(=O)(O)O [barasertib]
Outline: as §1

[2] = compound: CC[C@@H]1C(=O)N(C)c2cnc(Nc3ccc(C(=O)NC4CCN(C)CC4)cc3OC)nc2N1C1CCCC1
Outline: as §1

volasertib = compound: CC[C@@H]1C(=O)N(C)c2cnc(Nc3ccc(C(=O)N[C@H]4CC[C@H](N5CCN(CC6CC6)CC5)CC4)cc3OC)nc2N1C(C)C [volasertib]
Outline: as §1

[3] = compound: CCn1c(C(=O)N(C2CC2)C2CC2)cc2c3c(ncn3C)c(Nc3cc(C)n(C)n3)nc21
Outline: as §1

[4] = compound: CCn1cc(-c2ccnc3[nH]c(-c4cccc(CN(C)C)c4)cc23)c(-c2ccc(NC(=O)N(C)C)cc2)n1
Outline: as §1

[5] = compound: CN1CCC(CNc2ccc3ncc(-c4cccc(OC(F)(F)F)c4)n3n2)CC1
Outline: as §1

saracatinib = compound: CN1CCN(CCOc2cc(OC3CCOCC3)c3c(Nc4c(Cl)ccc5c4OCO5)ncnc3c2)CC1 [saracatinib]
Outline: as §1

sotrastaurin = compound: CN1CCN(c2nc(C3=C(c4c[nH]c5ccccc45)C(=O)NC3=O)c3ccccc3n2)CC1 [sotrastaurin]
Outline: as §1

alvocidib = compound: CN1CC[C@H](c2c(O)cc(O)c3c(=O)cc(-c4ccccc4Cl)oc23)[C@H](O)C1 [alvocidib]
Outline: as §1

Tubastatin A = compound: CN1CCc2c(c3ccccc3n2Cc2ccc(C(=O)NO)cc2)C1 [Tubastatin A]
Outline: as §1

[6] = compound: CNC(=O)C1=CC=CC=C1NC2=NC(=NC=C2Cl)NC3=C(C=C(C=C3)N4CCOCC4)OC
Outline: as §1

defactinib = compound: CNC(=O)c1ccc(Nc2ncc(C(F)(F)F)c(NCc3nccnc3N(C)S(C)(=O)=O)n2)cc1 [defactinib]
Outline: as §1

[7] = compound: CNc1nc(-c2ccc3c(N)n[nH]c3c2)cc(N2C[C@@H](C(=O)NC3CCCCC3)CC[C@H]2C)n1
Outline: as §1

encorafenib = compound: COC(=O)N[C@@H](C)CNc1nccc(-c2cn(C(C)C)nc2-c2cc(Cl)cc(NS(C)(=O)=O)c2F)n1 [encorafenib]
Outline: as §1

[8] = compound: COC(=O)[C@H](CCSC)NC(=O)C1=C(C=C(C=C1)NC[C@H](CS)N)C2=CC=CC=C2
Outline: as §1

alisertib = compound: COc1cc(Nc2ncc3c(n2)-c2ccc(Cl)cc2C(c2c(F)cccc2OC)=NC3)ccc1C(=O)O [alisertib]
Outline: as §1

[9] = compound: COc1cc2nc(-c3cc(F)ccc3O)nc(N[C@@H]3CNC[C@H]3C(C)(C)O)c2cc1OC
Outline: as §1

gefitinib = compound: COc1cc2ncnc(Nc3ccc(F)c(Cl)c3)c2cc1OCCCN1CCOCC1 [gefitinib]
Outline: as §1

Measured: log2 fold change

RUVBL2 (UniProt Q9Y230)
inactive: vemurafenib 0.018 | [1] 0.009 | barasertib -0.018 | [2] 0.002 | volasertib 0.001 | [3] -0.002 | [4] 0.004 | [5] 0.017 | saracatinib -0.021 | sotrastaurin -0.007 | alvocidib 0.003 | Tubastatin A 0.03 | [6] -0.005 | defactinib -0.028 | [7] -0.027 | encorafenib -0.006 | [8] -0.014 | alisertib -0.002 | [9] 0.014 | gefitinib -0.009

RYBP (UniProt Q8N488)
inactive: vemurafenib 0.053 | [1] 0.004 | barasertib -0.013 | [2] 0.15 | volasertib 0.002 | [3] -0.038 | [4] -0.053 | [5] 0.02 | saracatinib -0.003 | sotrastaurin 0.056 | alvocidib -0.116 | Tubastatin A 0.029 | [6] -0.068 | defactinib 0.075 | [7] 0.001 | encorafenib -0.001 | [8] 0.005 | alisertib -0.009 | [9] 0.004 | gefitinib 0.028

RSRC2 (UniProt Q7L4I2)
inactive: vemurafenib -0.01 | [1] -0.02 | barasertib -0.035 | [2] 0.071 | volasertib 0.033 | [3] 0.01 | [4] -0.058 | [5] 0.024 | saracatinib -0.007 | sotrastaurin 0.2 | alvocidib -0.056 | Tubastatin A 0.015 | [6] -0.068 | defactinib 0.027 | [7] 0.064 | encorafenib 0.055 | [8] -0.021 | alisertib -0.017 | [9] 0.023 | gefitinib 0.048

RPS28 (UniProt P62857)
inactive: vemurafenib -0.018 | [1] -0.044 | barasertib -0.01 | [2] 0.004 | volasertib -0.018 | [3] 0.039 | [4] -0.003 | [5] 0.064 | saracatinib -0.004 | sotrastaurin 0.051 | alvocidib -0.022 | Tubastatin A 0.032 | [6] -0.02 | defactinib -0.024 | [7] -0.027 | encorafenib 0.003 | [8] -0.026 | alisertib -0.043 | [9] 0.004 | gefitinib 0.008

Quoted from the entries so far (2 entries):
RYBP (UniProt Q8N488)
inactive: vemurafenib 0.053 | [1] 0.004 | barasertib -0.013 | [2] 0.15 | volasertib 0.002 | [3] -0.038 | [4] -0.053 | [5] 0.02 | saracatinib -0.003 | sotrastaurin 0.056 | alvocidib -0.116 | Tubastatin A 0.029 | [6] -0.068 | defactinib 0.075 | [7] 0.001 | encorafenib -0.001 | [8] 0.005 | alisertib -0.009 | [9] 0.004 | gefitinib 0.028

RSRC2 (UniProt Q7L4I2)
inactive: vemurafenib -0.01 | [1] -0.02 | barasertib -0.035 | [2] 0.071 | volasertib 0.033 | [3] 0.01 | [4] -0.058 | [5] 0.024 | saracatinib -0.007 | sotrastaurin 0.2 | alvocidib -0.056 | Tubastatin A 0.015 | [6] -0.068 | defactinib 0.027 | [7] 0.064 | encorafenib 0.055 | [8] -0.021 | alisertib -0.017 | [9] 0.023 | gefitinib 0.048

Next part:

RPP25L (UniProt Q8N5L8)
inactive: vemurafenib 0.02 | [1] 0.009 | barasertib 0.034 | [2] 0.112 | volasertib 0.025 | [3] 0.028 | [4] -0.048 | [5] 0.038 | saracatinib 0.009 | sotrastaurin -0.039 | alvocidib -0.006 | Tubastatin A 0.006 | [6] -0.052 | defactinib 0.08 | [7] -0.015 | encorafenib 0.031 | [8] 0.031 | alisertib 0.032 | [9] -0.005 | gefitinib -0.009

RTN4 isoform 2 (UniProt Q9NQC3)
inactive: vemurafenib 0.134 | [1] 0 | barasertib -0.069 | [2] 0.118 | volasertib 0.052 | [3] 0.006 | [4] -0.069 | [5] 0.048 | saracatinib 0.035 | sotrastaurin 0.021 | alvocidib 0.008 | Tubastatin A 0.088 | [6] -0.101 | defactinib 0.029 | [7] 0.094 | encorafenib 0.16 | [8] -0.097 | alisertib -0.003 | [9] -0.001 | gefitinib 0.004

RPL8 (UniProt P62917)
inactive: vemurafenib -0.055 | [1] 0.013 | barasertib -0.042 | [2] -0.09 | volasertib -0.012 | [3] 0.021 | [4] 0.208 | [5] -0.014 | saracatinib -0.009 | sotrastaurin -0.038 | alvocidib 0.007 | Tubastatin A 0.023 | [6] 0.02 | defactinib 0.038 | [7] 0.104 | encorafenib 0.022 | [8] -0.046 | alisertib 0.018 | [9] -0.008 | gefitinib 0.011

RSBN1L (UniProt Q6PCB5)
inactive: vemurafenib 0.125 | [1] 0.191 | barasertib -0.029 | [2] 0.026 | volasertib -0.031 | [3] -0.008 | [4] -0.06 | [5] 0.019 | saracatinib 0.056 | sotrastaurin 0.069 | alvocidib -0.048 | Tubastatin A 0.013 | [6] -0.039 | defactinib 0.01 | [7] 0.054 | encorafenib 0.122 | [8] 0.079 | alisertib -0.043 | [9] 0.021 | gefitinib -0.017

RTF2 (UniProt Q9BY42)
inactive: vemurafenib 0.01 | [1] 0.039 | barasertib 0.027 | [2] 0.047 | volasertib -0.08 | [3] -0.016 | [4] 0.044 | [5] 0 | saracatinib -0.004 | sotrastaurin 0.053 | alvocidib 0.014 | Tubastatin A -0.031 | [6] 0.04 | defactinib 0.016 | [7] -0.004 | encorafenib 0.007 | [8] -0.028 | alisertib -0.012 | [9] 0.043 | gefitinib 0.039

S100A11 (UniProt P31949)
inactive: vemurafenib 0.005 | [1] -0.015 | barasertib 0.008 | [2] 0.037 | volasertib 0.098 | [3] 0.004 | [4] -0.008 | [5] -0.052 | saracatinib 0.023 | sotrastaurin -0.036 | alvocidib 0.085 | Tubastatin A 0.075 | [6] 0.029 | defactinib 0.059 | [7] -0.011 | encorafenib -0.021 | [8] 0.007 | alisertib 0.024 | [9] -0.01 | gefitinib -0.089

RPS14 (UniProt P62263)
inactive: vemurafenib 0.007 | [1] 0.005 | barasertib -0.042 | [2] 0.019 | volasertib -0.006 | [3] -0.006 | [4] -0.091 | [5] 0.022 | saracatinib 0.006 | sotrastaurin 0.006 | alvocidib -0.017 | Tubastatin A 0.043 | [6] -0.027 | defactinib -0.026 | [7] 0.024 | encorafenib -0.015 | [8] 0.026 | alisertib 0.01 | [9] -0.014 | gefitinib -0.041

RPL37A (UniProt P61513)
active: [4] 0.371
inactive: vemurafenib 0.003 | [1] -0.002 | barasertib -0.013 | [2] -0.01 | volasertib -0.015 | [3] -0.044 | [5] -0.158 | saracatinib -0.035 | sotrastaurin -0.138 | alvocidib 0.159 | Tubastatin A 0.024 | [6] 0.022 | defactinib -0.045 | [7] 0.161 | encorafenib 0.004 | [8] 0.021 | alisertib -0.006 | [9] 0.004 | gefitinib -0.064

RPS20 isoform 2 (UniProt P60866)
inactive: vemurafenib -0.005 | [1] -0.035 | barasertib 0.07 | [2] -0.011 | volasertib -0.001 | [3] 0.016 | [4] -0.103 | [5] 0.05 | saracatinib 0.019 | sotrastaurin -0.03 | alvocidib -0.021 | Tubastatin A 0.013 | [6] -0.013 | defactinib -0.058 | [7] 0.017 | encorafenib -0.015 | [8] -0.04 | alisertib 0.005 | [9] 0.004 | gefitinib -0.023

RRM2 isoform 2 (UniProt P31350)
inactive: vemurafenib -0.016 | [1] -0.001 | barasertib 0.005 | [2] 0.055 | volasertib 0.05 | [3] -0.02 | [4] 0.01 | [5] 0.031 | saracatinib -0.009 | sotrastaurin -0.001 | alvocidib 0.015 | Tubastatin A 0.032 | [6] 0.027 | defactinib 0.011 | [7] 0.031 | encorafenib 0.003 | [8] 0.015 | alisertib 0.004 | [9] -0.013 | gefitinib 0.008

RPS29 (UniProt P62273)
inactive: vemurafenib -0.005 | [1] 0.039 | barasertib -0.034 | [2] -0.028 | volasertib 0.078 | [3] 0.109 | [5] -0.262 | saracatinib -0.007 | sotrastaurin -0.133 | alvocidib 0.23 | Tubastatin A -0.052 | [6] -0.029 | defactinib -0.027 | [7] 0.081 | encorafenib -0.062 | [8] 0.151 | alisertib -0.278 | [9] 0.032 | gefitinib -0.138
active: [4] 1.01

RPS27L (UniProt Q71UM5)
inactive: vemurafenib 0 | [1] 0.028 | barasertib -0.006 | [2] -0.004 | volasertib 0.003 | [3] -0.001 | [4] 0.054 | [5] 0.012 | saracatinib -0.001 | sotrastaurin -0.013 | alvocidib 0.041 | Tubastatin A -0.022 | [6] 0.017 | defactinib 0.04 | [7] 0.041 | encorafenib 0.002 | [8] 0.044 | alisertib 0.004 | [9] 0.009 | gefitinib -0.051
